From patent US20050118611
For part of these data: Where cells or extracts were used, other partners may take part. For part of these data: Tags and fusion partners may be left off the protein sequences shown. For part of these data: For at least one entry, the source does not settle the construct or the ends of the probe.

By UniProt entry, the sequences of proteins in these tests, tags left out.
UniProt Q04206, whole entry: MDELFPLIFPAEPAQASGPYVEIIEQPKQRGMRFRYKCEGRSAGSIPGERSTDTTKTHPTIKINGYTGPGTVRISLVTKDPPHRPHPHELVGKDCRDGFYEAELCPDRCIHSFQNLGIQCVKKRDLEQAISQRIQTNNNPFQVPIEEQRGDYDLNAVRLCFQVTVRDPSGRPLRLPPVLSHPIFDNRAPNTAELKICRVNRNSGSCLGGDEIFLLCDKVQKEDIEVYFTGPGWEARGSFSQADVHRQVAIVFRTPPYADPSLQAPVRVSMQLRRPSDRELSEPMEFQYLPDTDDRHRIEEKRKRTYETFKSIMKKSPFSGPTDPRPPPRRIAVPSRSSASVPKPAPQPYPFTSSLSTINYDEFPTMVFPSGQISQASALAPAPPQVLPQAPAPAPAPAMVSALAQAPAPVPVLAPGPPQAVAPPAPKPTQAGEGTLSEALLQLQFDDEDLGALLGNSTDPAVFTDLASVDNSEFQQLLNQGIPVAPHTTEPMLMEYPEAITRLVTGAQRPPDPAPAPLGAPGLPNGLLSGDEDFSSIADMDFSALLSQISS

Columns and labels:
[1] = target: T1, p105 (p50 precursor) or p50/p50, endogenous nuclear extract (UniProt P25799); assay: binding assay; conditions: six phosphorodithioates (S2): top CCAGGAGATS2TS2CCAC, bottom 3'-GGS2TCCS2TCS2TAAGGS2TG-5'; SELDI MS capture from nuclear extract; protein in an extract; protein details: MW ~105,591 by SELDI; variant of CK-14 phosphodiester 14-mer duplex
T1 sequence (looked up, limits assumed): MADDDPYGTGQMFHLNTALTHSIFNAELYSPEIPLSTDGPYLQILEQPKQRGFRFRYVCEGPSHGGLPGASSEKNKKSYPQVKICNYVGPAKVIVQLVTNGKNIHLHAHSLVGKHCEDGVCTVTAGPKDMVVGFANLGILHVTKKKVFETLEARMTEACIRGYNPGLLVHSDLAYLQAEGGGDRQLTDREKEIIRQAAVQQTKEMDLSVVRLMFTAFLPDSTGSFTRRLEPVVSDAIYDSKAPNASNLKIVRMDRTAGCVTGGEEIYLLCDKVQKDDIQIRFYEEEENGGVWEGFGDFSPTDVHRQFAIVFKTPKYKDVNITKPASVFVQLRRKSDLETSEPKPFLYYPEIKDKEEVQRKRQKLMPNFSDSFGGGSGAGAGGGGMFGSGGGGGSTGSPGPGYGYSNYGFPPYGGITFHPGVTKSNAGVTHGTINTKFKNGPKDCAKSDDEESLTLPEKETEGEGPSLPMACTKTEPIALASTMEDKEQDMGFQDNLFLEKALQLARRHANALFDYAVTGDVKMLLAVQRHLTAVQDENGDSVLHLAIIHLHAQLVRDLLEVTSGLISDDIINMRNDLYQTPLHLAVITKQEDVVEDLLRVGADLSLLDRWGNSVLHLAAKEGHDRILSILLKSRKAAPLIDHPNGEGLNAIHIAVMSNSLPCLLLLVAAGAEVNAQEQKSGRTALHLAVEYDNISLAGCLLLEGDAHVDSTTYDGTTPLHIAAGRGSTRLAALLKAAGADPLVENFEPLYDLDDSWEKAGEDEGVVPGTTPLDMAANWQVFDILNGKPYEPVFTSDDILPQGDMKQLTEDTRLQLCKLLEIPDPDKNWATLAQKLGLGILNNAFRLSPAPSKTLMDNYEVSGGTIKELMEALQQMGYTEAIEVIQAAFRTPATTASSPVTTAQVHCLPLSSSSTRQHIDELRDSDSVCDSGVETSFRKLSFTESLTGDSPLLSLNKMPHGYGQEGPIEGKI

[2] = test system: AP-1 proteins endogenous, 70Z/3 pre-B cell nuclear extract; assay: EMSA; conditions: six phosphorodithioates (S2): top CCAGTS2GACTS2CAGTS2G, bottom 3'-GGS2TCACS2TGAGS2TCAC-5'; specific binding in 70Z/3 nuclear extract; protein in an extract
[3] = target: NF-κB p65 (RelA) homodimer (UniProt Q04206); assay: SELEX; conditions: phosphorothioate (S) at all dA positions

## CCAGGAGATTCCAC (double strand) [XBY-6]
[1]
  binding result: binds

## CCAGTGACTCAGTG (double strand) [XBY-S2]
[2]
  binding result: binds

## GGGCGTATATGTGTGGCGGGGG (double strand) [p65 thioselected 22-mer (10 rounds)]
[3]
  selection result: selected
